Experimental findings from PMC12040169 (PLOS Biology, 2025) are described below.

The other results are listed elsewhere or left out.

For the assay, the system named is T1, CTL2-GFP (C. trachomatis L2/434/Bu, GFP-expressing).
T1 construct: L2/434/Bu, GFP-expressing
More on the design: species or system HeLa; Intracellular C. trachomatis growth in HeLa cells, bulk GFP fluorescence relative to DMSO. The conditions noted are these: bulk GFP, single well; 28.5 h, 10 µM; inhibitor.
As for `Fc1ccc(OCCNC2CCc3[nH]c4ccccc4c3C2)cc1` (centres unmarked) [CBK107791], the “% of control remaining” value is recorded as 102.702%.

For `O=C1c2ccccc2C(=O)N1Cc1nc2ccccc2c(=O)n1CCN1CCOCC1` [CBK268472], the “% of control remaining” value was 105.472%. Then `OC(COCc1ccc(Cl)cc1)CN1CCN(C(c2ccccc2)c2ccccc2)CC1` (centres unmarked) [CBK074857C], with 122.115%. On to `N#Cc1c2c(c3nncn3c1Nc1ccccc1)CCCC2` [CBK288197], for which the “% of control remaining” value was determined as 111.249%. Then `O=S(=O)(NCc1nc(-c2ccccc2)no1)c1ccc(F)cc1` [CBK268198], with 105.322%; and `O=C(O)c1cc(-c2cccc(O)c2)nc2ccc(Br)cc12` [CBK261777], with 100%.

Take `O=C(N1CCc2ccc(S(=O)(=O)Nc3ccc(-c4nnn[nH]4)cc3)cc2C1)C(F)(F)F` [CBK155437]: the “% of control remaining” value was determined as 93.1657%. On to `Cc1ccc(S(=O)(=O)N2CCN(C(=O)C3CCCCC3C(=O)O)CC2)cc1C` (centres unmarked) [CBK286936], for which the “% of control remaining” value was found to be 134.964%.

Regarding `CCNC(=O)N1Cc2nc[nH]c2C[C@H]1C(=O)NCc1ccc(OC)cc1` [CBK288973], the “% of control remaining” value came out at 123.012%.

With `O=C(Nc1cccc(N2CCNCC2)c1)c1cnc2ccccc2c1` [CBK029415T], the “% of control remaining” value turned out to be 113.415%. The value for `O=C(CN1CCOCC1)Nc1ccc(S(=O)(=O)Nc2cc(Cl)cc(Cl)c2)cc1` [CBK001239] was 100.94%; that for `O=C(CSc1nnc(-c2cccnc2)n1Cc1ccccc1)Nc1ccc(F)cc1` [CBK267528] was 100.364%; that for `Nc1ncc(-c2cccc(/C=C/C(=O)O)c2)nc1NCc1ccco1` [CBK063691] was 215.421%. `O=C(NCCN1CCOCC1)N1CCN(c2ccccc2)CC1` [CBK155180]: the “% of control remaining” value is reported as 135.514%. Then `CCn1c(=O)n(CC(=O)NCc2ccc(F)cc2)c2cccnc21` [CBK283901], with 109.248%; and `CNCC(=O)N1c2ccccc2CCc2ccc(NC(=O)OC)cc21` [CBK261285C], with 95.3969%. Then `CC1(C)C[C@H](NC2CCOCC2)[C@@]2(CCC(=O)N3CCOCC3)CC[C@](C)(O)C[C@@H]12` [CBK289041], with 144.158%. Take `O=C(CCc1ccccc1)NC(c1cccc([N+](=O)[O-])c1)c1c(O)ccc2ccccc12` (centres unmarked) [CBK265278]: the “% of control remaining” value came to 100.538%.

`CCN(CC)C(=O)CN1CC=C(c2ccc(C)o2)CC1` [CBK283497]: the “% of control remaining” value stood at 117.456%. Consider `CC(C)Oc1ccc(C(=O)C2=C(O)C(=O)N(CCN(C)C)C2c2ccccc2F)cc1` (centres unmarked) [CBK264886], for which the “% of control remaining” value worked out at 115.16%. On to `OC(c1cccs1)C1CCN(Cc2cnn(-c3ccccc3)c2)CC1` (centres unmarked) [CBK307290], for which the “% of control remaining” value was 101.308%. Turning to `CC(C)[C@@H](Cn1nc(C2CC2)ccc1=O)NC(=O)c1ccco1` [CBK282321], the “% of control remaining” value stood at 130.183%. Then `Cc1ccc(N2C(=O)/C(=C/c3ccc(O)c(O)c3)SC2=S)cc1C` [CBK262756], with 108.449%; and `COC(=O)NCCc1c[nH]c2ccc(OC)cc12` [CBK084597], with 157.066%. The value for `CC1CCN(S(=O)(=O)c2ccc(Oc3ccc([N+](=O)[O-])cc3)cc2)CC1` [CBK261774] was 111.287%. The value for `O=C(c1cc[nH]n1)N1CCC(c2cc3ccccc3cn2)CC1` [CBK284892] was 104.464%. As for `O=C(O)C1CCC(CNC(=O)C2Cc3ccccc3CN2)CC1` (centres unmarked) [CBK286745], the “% of control remaining” value turned out to be 128.511%.

For the compound `CSCc1nc2ccccc2n1CC(=O)N(CCC#N)Cc1ccco1` [CBK305440], the “% of control remaining” value was 109.547%.

Take `O=C(Cc1ccccc1)N/N=C/c1cccc2cccnc12` [CBK262778]: the “% of control remaining” value is listed as 116.117%.

Consider `CCOC(=O)C1CCCN(Cc2nc3cc(Cl)ccc3c(=O)[nH]2)C1` (centres unmarked) [CBK306198], for which the “% of control remaining” value was found to be 122.809%.

With `Cc1cc2nc(/C(C#N)=C/c3cc(C)n(-c4ccc(C(=O)O)cc4)c3C)[nH]c2cc1C` [CBK269105], the “% of control remaining” value is 139.485%. Then `Cc1cnc(CNC(=O)c2cnoc2-c2ccccc2)cn1` [CBK154926], with 127.204%. Then `O=C(NCCc1ccc(O)cc1)C1(c2ccccc2)CCCC1` [CBK149535], with 96.6221%; and `CCOC(=O)c1cnn(-c2cc(Oc3ccccc3)ncn2)c1N` [CBK098284], with 101.582%.

As to `O=C(O)c1cccc(-n2nnnc2SCc2ccccn2)c1` [CBK266744], the “% of control remaining” value stood at 79.9222%. Then `O=C(CC1S/C(=N/N=C/c2ccc(-c3ccc(Cl)c([N+](=O)[O-])c3)o2)NC1=O)Nc1ccccc1` (centres unmarked) [CBK264473], with 100%; and `COc1cc(F)ccc1-c1ccc2ccc(NC(=O)C(C)C)nc2n1` [CBK073666], with 188.351%; and `COc1ccc(C(C)C)cc1-c1cc(NCCc2cccnc2)n2nccc2n1` [CBK037097], with 156.426%. `CCCCNC(=O)OC1CCN(CCc2ccccc2)CC1` [CBK022839C]: the “% of control remaining” value is given as 125.699%. The value for `CCc1nnc(SCc2ccc(CSc3nnc(CC)n3N)cc2)n1N` [CBK265689] was 93.8817%. The value for `CN(C)CCN(C)c1cc(-c2ccc(F)c(Cl)c2)nc2ccnn12` [CBK037230] was 177.411%; that for `CC(C)(C)C(Cn1cccn1)NC(=O)CCC(=O)O` (centres unmarked) [CBK286897] was 115.331%; that for `CC(C)(C)CC(NC(=O)C1CCCN(S(C)(=O)=O)C1)c1ccccc1` (centres unmarked) [CBK304563] was 111.445%. Then `Cc1cc2c(cc3c(=O)n(CC(=O)OC(C)C)nc(C)n32)s1` [CBK284071], with 111.595%; and `O=C(O)CCSc1nnc(-c2cccc(Br)c2)o1` [CBK286540], with 120.51%. In the case of `O=C(Cn1cc(C(=O)NC2(c3ccccc3)CCCC2)ccc1=O)NC1CCCCC1` [CBK285986], the “% of control remaining” value worked out at 124.41%.

Regarding `O=C(Nc1ccc2nc(SCc3ccc([N+](=O)[O-])cc3)sc2c1)c1ccccc1` [CBK263427], the “% of control remaining” value is reported as 119.808%. Then `COC(=O)[C@@H](C)NC(=O)[C@H]1CN(C(=O)Nc2ccccc2)CCN1C(=O)c1cccs1` [CBK289629], with 141.728%; and `O=C(COc1ccc(S(=O)(=O)NC2CCCC2)cc1)Nc1ccc2c(c1)OCCO2` [CBK266431], with 134.838%; and `CC(=O)Nc1ccc(Nc2nc(Br)cn3ccnc23)cc1` [CBK066338], with 134.891%. The value for `CCC(CC)C(=O)Nc1nc(OC)cnc1-c1cc(Cl)cc(Cl)c1` [CBK145338] was 110.112%. Then `Cc1cccc(CC(=O)N2CCC(Cc3ccccc3-c3ccccc3)(C(N)=O)CC2)c1` [CBK285731], with 121.511%; and `Cc1cc(C)cc(C(=O)N2CCCC(C(=O)N3CCN(c4nccs4)CC3)C2)c1` (centres unmarked) [CBK298307], with 104.768%. For `O=C(c1cc(-c2ccncc2)nc2ccc(Cl)cc12)N1CCN(C/C=C/c2ccccc2)CC1` [CBK267754], the “% of control remaining” value is 107.859%. The value for `O=C(O)c1ccc(CNC(=O)c2ccc(Cl)c(S(=O)(=O)N3CCCC3)c2)cc1` [CBK297096] was 170.793%. Take `Cc1cc(Cc2ccc(Cl)cc2)cc(C2CCN(C(=O)Cc3csc(C)n3)CC2)n1` [CBK286526]: the “% of control remaining” value stood at 107.467%.

Take `CS(=O)(=O)N(Cc1cc2ccccc2nc1O)CC1CCCO1` (centres unmarked) [CBK269517]: the “% of control remaining” value is given as 144.969%. The value for `C=CCO[C@@H]1C[C@H]2C(=O)N3CC[C@H](NC(=O)[C@@H](O)c4ccccc4)C[C@H]3C(=O)N2C1` [CBK289556] was 128.707%; that for `O=[N+]([O-])c1ccc(O)c(/C=N/Nc2nc(Nc3ccc(Cl)cc3)nc(N3CCOCC3)n2)c1` [CBK260918] was 110.618%; that for `Cn1c(=O)c2c(nc(CN3CCN(c4ccccc4)CC3)n2Cc2ccccc2)n(C)c1=O` [CBK269557] was 142.006%. Then `CCCCN(C)c1c(CC)nc2ccc(C(=O)NC3=NC(=O)CS3)cn12` [CBK145464], with 92.9053%. The value for `CCC(NC(=O)C(C)n1cc(Cl)cn1)c1ccc(OC)cc1` (centres unmarked) [CBK282029] was 153.298%; that for `Cc1ccc(-c2noc([C@@H]3Cc4[nH]cnc4CN3C(=O)c3cccs3)n2)cc1` [CBK288957] was 130.504%. In the case of `CCc1nc2ccc(C(=O)Nc3ccc(C(N)=O)cc3)cn2c1N(C)CCC(C)C` [CBK145476], the “% of control remaining” value is 120.547%.

As to `O=C(O)c1cccc(CSCC(=O)N2CCC(Cc3ccccc3)CC2)c1` [CBK296675], the “% of control remaining” value turned out to be 130.885%. The value for `CC(=O)N1CC(C(=O)Nc2ccccc2Cc2ccccc2)Oc2ccccc21` (centres unmarked) [CBK297525] was 123.342%.

`COc1ccc(C(C)C)cc1-c1ccc(C(=O)N2CCN(C)CC2)c(N(C)C)n1` [CBK106130]: the “% of control remaining” value was determined as 155.285%. The value for `Cc1ccc(S(=O)(=O)CCC(=O)Nc2ccc3sc(C)nc3c2)cc1` [CBK287706] was 110.381%; that for `CC(C)(C)c1cc(C(C)(C)C)cc(S(=O)(=O)CCc2ccccn2)c1` [CBK261073] was 102.298%. Then `CCNc1cc(-c2cccc(N)c2)ncn1` [CBK037731], with 102.089%. In the case of `COc1ccccc1C(=O)N1CCC(Cc2ccc(-c3cccc(C)c3)cc2)(C(N)=O)CC1` [CBK285792], the “% of control remaining” value is 104.59%. Then `C[N+](C)(C)C1=C([O-])c2ccccc2C1=O` [CBK009824], with 119.467%; and `Clc1nccnc1N1CCCC1` [CBK083594], with 122.313%; and `N#Cc1ccccc1Cn1cc(C(=O)COc2ccccc2)c2ccccc21` [CBK268532], with 137.661%.

With `CCOc1ccc(S(=O)(=O)NCCCN2CCOCC2)c2ccccc12` [CBK018421], the “% of control remaining” value worked out at 107.225%.

For the compound `Fc1ccc(OCc2nn3cnnc3s2)cc1` [CBK287288], the “% of control remaining” value is 138.907%. The value for `C[C@H]1CNCCN1c1nccnc1Cl` [CBK047524F] was 111.845%.
